Assay results published in article PMC5996148.
Where “and” joins values, the source holds several entries; their conditions need not be identical. Identical values can stand only once. Some of the results follow. For some assays here: The exact form of the protein is not confirmed.

Amino acid sequences for entries named in this document (tags omitted).
UniProt P60228, whole entry: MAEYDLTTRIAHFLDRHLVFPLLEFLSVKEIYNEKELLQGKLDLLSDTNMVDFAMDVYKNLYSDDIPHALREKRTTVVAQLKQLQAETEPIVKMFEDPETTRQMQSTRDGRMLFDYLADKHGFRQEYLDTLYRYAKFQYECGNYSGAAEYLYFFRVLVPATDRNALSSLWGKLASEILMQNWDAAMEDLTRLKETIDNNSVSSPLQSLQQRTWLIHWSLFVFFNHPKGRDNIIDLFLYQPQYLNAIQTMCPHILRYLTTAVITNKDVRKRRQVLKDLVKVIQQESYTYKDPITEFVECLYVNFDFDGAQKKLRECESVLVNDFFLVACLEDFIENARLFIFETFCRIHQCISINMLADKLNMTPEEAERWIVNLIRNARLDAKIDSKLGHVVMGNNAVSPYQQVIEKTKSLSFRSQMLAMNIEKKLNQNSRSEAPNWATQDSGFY

Legend:
Experiment in all cases: protein microarray (ProtoArray v5.0), streptavidin-Alexa Fluor 647
Conditions in all cases: 3'-biotin; 20 mM Tris (pH 7.5), 5 mM MgCl2, 100 mM KCl, 0.1% Tween-20, A/T-rich and random oligonucleotide blockers; temperature not stated; high values mean tight binding
[1] = tested on: ECM1 (human)
[2] = tested on: EDEM3 (human)
[3] = tested on: EDIL3 (human)
[4] = tested on: EEF1G (human)
[5] = tested on: EFCAB2 (human)
[6] = tested on: EFCBP1 (human)
[7] = tested on: EFS (human)
[8] = tested on: EFTUD2 (human)
[9] = tested on: EGFL8 (human)
[10] = tested on: EIF2B1 (human)
[11] = tested on: EIF2B2 (human)
[12] = tested on: EIF2B3 (human)
[13] = tested on: EIF2C2 (human)
[14] = tested on: EIF3F (human)
[15] = tested on: EIF3M (human)
[16] = target: EIF3S6 (UniProt P60228)
[17] = tested on: EIF4A2 (human)
[18] = target: T1, EIF4EBP3 (UniProt O60516)
T1 sequence: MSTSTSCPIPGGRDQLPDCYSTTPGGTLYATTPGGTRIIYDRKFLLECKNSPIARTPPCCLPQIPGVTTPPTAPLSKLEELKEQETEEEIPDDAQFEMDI

[19] = tested on: EIF5A2 (human)
[20] = tested on: ELA2A (human)

“GGGAGGCTGAGGCAGG [G4-1 biotinylated (PQS2)]” showed a binding signal [1] of -0.316 z-score, a binding signal [2] of -0.292 z-score and a binding signal [3] of -0.303 z-score. It also gave a binding signal [4] of -0.301 z-score, a binding signal [5] of -0.284 z-score and a binding signal [6] of -0.296 z-score. For the same sequence, the binding signal [7] was -0.353 z-score, the binding signal [8] was -0.352 z-score and the binding signal [9] was -0.309 z-score. The binding signal [10] was -0.333 z-score, the binding signal [11] was -0.363 z-score and the binding signal [12] was -0.307 z-score. For the same sequence, the binding signal [13] was -0.283 z-score, the binding signal [14] was -0.312 z-score and the binding signal [15] was -0.308 z-score. The binding signal [16] was -0.359 z-score, the binding signal [17] was -0.238 z-score and -0.309 z-score and the binding signal [18] was -0.319 z-score. The binding signal [19] was -0.334 z-score and the binding signal [20] was -0.257 z-score.
